Experimental data reported in PubChem BioAssay AID2685 (National Center for Advancing Translational Sciences (NCATS), 2010).
The list shows a part of the results. These are further read-outs of the screen, such as a control signal, another cell line or another target. No call is given for them. Compounds called inactive in the main read-out are mostly missing here. The note in brackets gives the kind of curve behind each potency; many fits are weak.

Assay: qHTS Assay for Lipid Storage Modulators in Drosophila S3 Cells;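 for cell number change: cells counted by Cell Tracker Red CMTPX staining in the red channel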
Details: BODIPY lipid droplet fluorescence, 18-24 h; for cell number change: measured here: cell count max response, cells fed with added oleic acid
How it was run: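 Drosophila S3 cells got compounds at several concentrations plus oleic acid (400 uM solution). Laser-scanning cytometry with 488 nm excitation read lipid droplets at 500-530 nm and cells at 575-640 nm. Percent activity was relative to 20 uM Triacsin C.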

[1] = measured here: lipid fluorescence (Fed channel) AC50, cells fed with added oleic acid
[2] = measured here: cell number channel AC50, cells fed with added oleic acid

Row | Compound | cell number change [%] | AC50 [1] | AC50 [2]
1 | COc1ccc(N2C(=O)/C(=C/c3ccc([N+](=O)[O-])cc3)C=C2c2ccccc2)cc1 | 33.6 | 6.51 µM [falling, single point] | 
2 | O=C(Oc1ccc(Cl)c2cccnc12)c1cccc([N+](=O)[O-])c1 | -79.7 | 13 µM [falling, partial curve, poor fit] | 18.4 µM [falling, single point]
3 | O=S(=O)(Nc1nc2ccc(S(=O)(=O)N3CCCCC3)cc2s1)c1ccccc1 | 15.9 |  | 0.058 µM [rising, full curve, poor fit]
4 | COc1ccc(C(C)(C)C)cc1NC(=O)c1cncc(Br)c1 | -19.4 | 23.1 µM [falling, single point] | 
5 | CC(=O)Nc1ccc(NCC(O)COc2ccccc2)cc1 (stereo unspecified) | -45.2 | 29.1 µM [falling, single point] | 29.1 µM [falling, single point]
6 | C/C(=N\NC(=O)c1nnn(-c2nonc2N)c1CN(C)c1ccccc1)c1ccc(O)cc1 | -1.53 |  | 
7 | O=C(NCc1ccco1)C(c1cccnc1)N(C(=O)Cn1nnc2ccccc21)c1ccc(F)cc1 (stereo unspecified) | 55.2 |  | 29.1 µM [rising, single point]
8 | COc1ccc(S(=O)(=O)NCCC(=O)NC(C)c2ccccc2)cc1 (stereo unspecified) | 167 |  | 6.51 µM [falling, partial curve, poor fit]
9 | Cc1nc2nc(CSc3nnc(C)s3)cc(=O)n2[nH]1 | -3.25 | 4.11 µM [falling, single point] | 
10 | O=C(CCCn1c(=S)[nH]c2cc3c(cc2c1=O)OCO3)NCCc1ccccc1Cl | 8.73 | 6.51 µM [falling, single point] | 
11 | Cc1ncc(CN2CCCC(C(=O)Nc3ccc(-c4ccco4)cc3)C2)cn1 (stereo unspecified) | 17 | 29.1 µM [rising, single point] | 
12 | CCN(c1ccc(N=Cc2c(O)n(Cc3ccc(OC)cc3)c(=O)c3ccccc23)cc1)C(C)C | -77.9 | 1.46 µM [falling, full curve, poor fit] | 29.1 µM [falling, single point]
13 | O=C(NNC(=O)C1CC(c2cccs2)=NO1)Nc1ccc(Cl)cc1 (stereo unspecified) | 5.71 | 29.1 µM [rising, single point] | 
14 | Cc1ccccc1CS(=O)(=O)CCC(=O)NCCN1CCN(c2cccc(Cl)c2)CC1 | 8.48 | 0.0058 µM [falling, full curve, poor fit] | 0.00651 µM [falling, full curve, poor fit]
15 | CC1CCCCC1NC(=O)CN1c2cccc3cccc(c23)S1(=O)=O (stereo unspecified) | -14.8 | 7.31 µM [falling, partial curve] | 
16 | CCOC(=O)C(C)Oc1cccc2c(=O)n(CC(=O)NCCc3ccc(OC)c(OC)c3)ccc12 (stereo unspecified) | -61 | 20.6 µM [falling, partial curve] | 14.6 µM [falling, partial curve]
17 | CCS(=O)(=O)c1ccc2c(c1)N(S(C)(=O)=O)CC(C(=O)NC1CC1)O2 (stereo unspecified) | -9.64 |  | 2.59 µM [falling, single point]
18 | Cc1ccc(N=CC2=C(O)CC(c3cccc(Cl)c3)CC2=O)cc1 (stereo unspecified) | 40.9 | 23.1 µM [rising, single point] | 6.51 µM [rising, single point]
19 | COc1cccc(C(c2nnnn2CS(=O)(=O)c2ccc(C)cc2)N2CCN(C)CC2)c1OC (stereo unspecified) | 5.31 | 0.0731 µM [falling, full curve, poor fit] | 
20 | O=C(Cn1cnc2ccccc21)c1ccccc1 | -27.4 | 20.6 µM [falling, single point] | 
21 | C[C@@]12CCC=C[C@H]1[C@H](c1ccc(F)c(/C=C/c3ccccc3)c1)N(Cc1ccccc1)C2=O | 11.6 | 29.1 µM [rising, single point] | 
22 | Cc1ccc(C(=O)N/N=C\c2ccccc2[N+](=O)[O-])cn1 | -16.8 | 0.116 µM [falling, full curve, poor fit] | 0.082 µM [falling, full curve, poor fit]
23 | C=CCNc1nc(-c2cccc(OC)c2O)nc2ccccc12 | -44.9 | 29.1 µM [falling, single point] | 23.1 µM [falling, single point]
24 | CC(=O)N1c2ccc([N+](=O)[O-])cc2NC(=O)CC1C (stereo unspecified) | -13 | 4.61 µM [rising, partial curve] | 5.17 µM [rising, partial curve]
25 | CCN(CC(=O)Nc1c(F)cccc1F)C(=O)c1ccc(Cl)c(S(=O)(=O)N2CCCC2)c1 | 40.5 |  | 16.4 µM [rising, partial curve, poor fit]
26 | N#Cc1cc2c(nc1SCc1ccc(Cl)nc1)CCCCC2 | 10.4 | 3.66 µM [rising, partial curve] | 
27 | O=C(CN1CCN(Cc2ccccc2)CC1)N/N=C/C=C/c1ccccc1[N+](=O)[O-] | 17.2 | 2.59 µM [rising, partial curve] | 
28 | O=C(c1cccc(OC2CCN(Cc3ccc(F)cc3)CC2)c1)N1CCCC1 | -0.872 | 29.1 µM [rising, single point] | 

An excerpt of these results, in CSV form.
Row,Compound,cell number change [%],AC50 [1],AC50 [2]
20,O=C(Cn1cnc2ccccc21)c1ccccc1,-27.4,"20.6 µM [falling, single point]",
21,C[C@@]12CCC=C[C@H]1[C@H](c1ccc(F)c(/C=C/c3ccccc3)c1)N(Cc1ccccc1)C2=O,11.6,"29.1 µM [rising, single point]",

The list continues.

Row | Compound | cell number change [%] | AC50 [1] | AC50 [2]
29 | O=C(OCCCOC(=O)c1ccccc1O)c1ccccc1O | -0.694 |  | 
30 | Cc1cc(NC(=O)NN2CCOCC2)nn1-c1c(Cl)cccc1Cl | -0.963 | 0.651 µM [falling, full curve, poor fit] | 
31 | COc1ccccc1OCC(=O)NCCC1=CCCCC1 | -23.8 | 29.1 µM [rising, single point] | 
32 | Cc1c(C(=O)N/N=C/c2cccnc2)nnn1-c1nonc1N | -6.76 | 29.1 µM [rising, single point] | 
33 | Cc1cc(=O)[nH]c(CN2CCC(c3ccccc3)CC2)n1 | -10.2 | 0.146 µM [falling, full curve, poor fit] | 0.103 µM [falling, full curve, poor fit]
34 | CCN(CC)CCOC(=O)c1c(C)oc2ccc(O)cc12 | -60.4 |  | 10.3 µM [falling, partial curve]
35 | Cn1c(=O)c2c(nc(CN3CCN(CCO)CC3)n2CCc2ccccc2)n(C)c1=O | 18.8 | 5.17 µM [rising, partial curve, poor fit] | 
36 | C/C(=C\C(=O)c1ccccc1)Nc1ccc(Br)c(Cl)c1 | -15.5 | 0.13 µM [falling, full curve, poor fit] | 
37 | O=C(N/N=C/c1cccnc1)c1ccc2ccccc2c1O | 19.5 | 29.1 µM [rising, single point] | 
38 | CCOC(=O)c1c(C)[nH]c(=S)c(C#N)c1-c1ccc(OC)cc1 | 38.1 |  | 6.51 µM [rising, partial curve]
39 | Cc1ccc(C(C)NC(=O)COC(=O)C2=COCCO2)cc1C (stereo unspecified) | -46.4 |  | 29.1 µM [falling, single point]
40 | CCNc1nc(Cl)nc(N(NC(C)=O)C(C)CC)n1 (stereo unspecified) | -47.2 | 29.1 µM [falling, single point] | 29.1 µM [falling, single point]
41 | COc1ccc(Cn2c(CCC(=O)Nc3ccc(CC#N)cc3)nc3cccnc32)cc1 | -70.6 |  | 29.1 µM [falling, single point]
42 | Cc1ccc(NC(=O)CSc2nnc(-c3cc(C)[nH]n3)n2N)c(C)c1 | -5.42 |  | 
43 | CCOc1ccc(N2C(=O)C3C4C=CC(CC4)C3C2=O)c([N+](=O)[O-])c1 (stereo unspecified) | 24.5 | 29.1 µM [rising, single point] | 
44 | O=C(CCCC(=O)NCc1ccc(F)cc1)NCc1ccc(F)cc1 | 13.1 | 6.51 µM [falling, single point] | 6.51 µM [falling, single point]
45 | Cn1c(=O)c(=O)n(C)c2cc(S(=O)(=O)N3CCCC3C(=O)NCc3cccnc3)ccc21 (stereo unspecified) | -30.2 | 9.2 µM [falling, single point] | 32.6 µM [falling, single point]
46 | O=C(c1cccnc1)N1CCN(Cc2cccc(F)c2)CC1 | 63.4 | 1.84 µM [rising, partial curve] | 9.2 µM [rising, partial curve]
47 | NC(=O)CN(C/C=C/c1ccccc1)C/C=C/c1ccccc1 | -1.59 |  | 0.0651 µM [rising, full curve, poor fit]
48 | CCS(=O)(=O)Nc1cccc(C2=NN(S(C)(=O)=O)C(c3cccs3)C2)c1 (stereo unspecified) | -8.26 | 20.6 µM [rising, single point] | 
49 | O=C(Oc1ccc2c(=O)c(Oc3ccc4ccccc4c3)coc2c1)c1cncc(Br)c1 | -59.8 |  | 2.91 µM [falling, full curve]
50 | Cc1cc(C)cc(NC(=S)NCCc2c[nH]c3ccccc23)c1 | 14.6 | 5.8 µM [rising, partial curve] | 
51 | Cc1ccccc1NC(=O)CCC(=O)N/N=C/c1cccnc1 | 14.7 |  | 
52 | O=C(COC(=O)c1ccc(S(=O)(=O)N2CCCC2)cc1)Nc1cccc(Cl)c1 | -11.2 | 0.461 µM [falling, single point] | 
53 | COc1ccc(CN2CCN(C(=O)CCC(=O)c3ccc(C)s3)CC2)cc1OC | 7.1 | 6.51 µM [rising, partial curve, poor fit] | 
54 | Cc1cc(-c2nc(C)c(C(=O)NNS(=O)(=O)c3ccc(Cl)cc3Cl)s2)no1 | 15.3 |  | 0.58 µM [falling, full curve]
55 | COc1ccc([C@@H]2[C@@H]3C(=O)N(C(C)(C)C)C(=O)[C@@H]3[C@]3(Cc4ccccc4)C(=O)N(c4ccc(C)cc4)C(=O)N23)cc1 | -0.33 | 6.51 µM [falling, single point] | 6.51 µM [falling, single point]

An excerpt of these results, with each value named:
CCN(CC)CCOC(=O)c1c(C)oc2ccc(O)cc12
  cell number change [%]: -60.4; AC50 [2]: 10.3 µM [falling, partial curve]
Cn1c(=O)c2c(nc(CN3CCN(CCO)CC3)n2CCc2ccccc2)n(C)c1=O
  cell number change [%]: 18.8; AC50 [1]: 5.17 µM [rising, partial curve, poor fit]
C/C(=C\C(=O)c1ccccc1)Nc1ccc(Br)c(Cl)c1
  cell number change [%]: -15.5; AC50 [1]: 0.13 µM [falling, full curve, poor fit]
